Test results taken from article PMC10465218.
No constants are given. Whether binding was seen depends on the method and setting. For some of these results: In cells and extracts the contact can be indirect. Some binding calls cover weakened binding; strength is not graded here. One block for each molecule: values may come before it.

Amino acid sequences for entries named in this document (tags omitted).
UniProt O00571: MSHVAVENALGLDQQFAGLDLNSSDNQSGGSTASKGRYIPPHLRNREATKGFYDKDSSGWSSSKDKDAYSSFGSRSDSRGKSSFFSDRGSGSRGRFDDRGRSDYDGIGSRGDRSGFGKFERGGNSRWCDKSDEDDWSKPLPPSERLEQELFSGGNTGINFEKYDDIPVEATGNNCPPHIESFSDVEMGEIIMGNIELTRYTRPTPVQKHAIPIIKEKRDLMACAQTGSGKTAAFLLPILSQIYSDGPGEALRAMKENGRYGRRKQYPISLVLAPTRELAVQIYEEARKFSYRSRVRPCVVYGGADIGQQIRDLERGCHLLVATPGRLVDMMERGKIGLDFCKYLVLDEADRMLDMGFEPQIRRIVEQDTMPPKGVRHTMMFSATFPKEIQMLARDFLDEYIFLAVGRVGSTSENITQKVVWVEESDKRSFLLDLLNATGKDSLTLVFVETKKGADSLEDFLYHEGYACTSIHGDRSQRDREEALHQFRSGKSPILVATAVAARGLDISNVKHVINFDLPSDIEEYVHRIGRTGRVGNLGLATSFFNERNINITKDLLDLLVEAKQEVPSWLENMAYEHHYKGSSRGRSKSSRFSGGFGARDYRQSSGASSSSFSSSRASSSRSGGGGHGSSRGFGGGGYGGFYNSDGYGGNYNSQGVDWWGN
UniProt Q62167: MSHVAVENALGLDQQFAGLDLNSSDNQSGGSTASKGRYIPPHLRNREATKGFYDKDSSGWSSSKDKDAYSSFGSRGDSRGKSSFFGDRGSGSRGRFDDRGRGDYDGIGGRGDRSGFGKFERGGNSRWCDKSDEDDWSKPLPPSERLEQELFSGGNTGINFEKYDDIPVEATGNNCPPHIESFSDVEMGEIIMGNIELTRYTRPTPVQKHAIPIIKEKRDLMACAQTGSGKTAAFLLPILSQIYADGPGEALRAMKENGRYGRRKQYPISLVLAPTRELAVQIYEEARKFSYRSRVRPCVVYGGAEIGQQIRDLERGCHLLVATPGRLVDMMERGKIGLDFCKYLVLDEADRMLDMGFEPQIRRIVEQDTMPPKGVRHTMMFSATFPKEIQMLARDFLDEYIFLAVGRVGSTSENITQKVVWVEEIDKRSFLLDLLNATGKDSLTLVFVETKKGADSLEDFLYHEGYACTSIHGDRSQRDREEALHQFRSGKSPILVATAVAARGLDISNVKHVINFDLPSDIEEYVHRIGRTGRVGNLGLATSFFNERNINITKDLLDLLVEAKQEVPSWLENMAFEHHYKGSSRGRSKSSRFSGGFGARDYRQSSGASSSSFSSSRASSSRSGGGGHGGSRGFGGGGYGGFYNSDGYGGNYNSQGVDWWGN

How the values were obtained:
[1] = target: Kindlin-2 (endogenous, human MIA PaCa-2 cells) (human (endogenous in MIA PaCa-2)) (UniProt Q96AC1); assay: co-IP; endogenous proteins; 2 mg lysate of primary mouse PCCs or human MIA PaCa-2 cells; anti-Kindlin-2 (clone 3A3) or anti-DDX3X antibody overnight at 4 C, protein A/G Plus-Agarose, control mouse or rabbit IgG; immunoblot
[2] = target: wild-type full-length Kindlin-2 (lentiviral, pLVX-K2-Hyg) (UniProt Q96AC1); assay: co-IP; lysates of primary PCCs from KPC;K2 WT or KPC;K2 cKO mice infected with lentivirus encoding K2 WT, K2 ΔF1 or empty vector; anti-Kindlin-2 antibody; immunoblot
[3] = target: T1, Kindlin-2 (endogenous, mouse primary pancreatic cancer cells) (mouse (endogenous in primary PCCs)) (UniProt Q8CIB5); assay: co-IP; endogenous proteins; 2 mg lysate of primary mouse PCCs or human MIA PaCa-2 cells; anti-Kindlin-2 (clone 3A3) or anti-DDX3X antibody overnight at 4 C, protein A/G Plus-Agarose, control mouse or rabbit IgG; immunoblot
T1 sequence: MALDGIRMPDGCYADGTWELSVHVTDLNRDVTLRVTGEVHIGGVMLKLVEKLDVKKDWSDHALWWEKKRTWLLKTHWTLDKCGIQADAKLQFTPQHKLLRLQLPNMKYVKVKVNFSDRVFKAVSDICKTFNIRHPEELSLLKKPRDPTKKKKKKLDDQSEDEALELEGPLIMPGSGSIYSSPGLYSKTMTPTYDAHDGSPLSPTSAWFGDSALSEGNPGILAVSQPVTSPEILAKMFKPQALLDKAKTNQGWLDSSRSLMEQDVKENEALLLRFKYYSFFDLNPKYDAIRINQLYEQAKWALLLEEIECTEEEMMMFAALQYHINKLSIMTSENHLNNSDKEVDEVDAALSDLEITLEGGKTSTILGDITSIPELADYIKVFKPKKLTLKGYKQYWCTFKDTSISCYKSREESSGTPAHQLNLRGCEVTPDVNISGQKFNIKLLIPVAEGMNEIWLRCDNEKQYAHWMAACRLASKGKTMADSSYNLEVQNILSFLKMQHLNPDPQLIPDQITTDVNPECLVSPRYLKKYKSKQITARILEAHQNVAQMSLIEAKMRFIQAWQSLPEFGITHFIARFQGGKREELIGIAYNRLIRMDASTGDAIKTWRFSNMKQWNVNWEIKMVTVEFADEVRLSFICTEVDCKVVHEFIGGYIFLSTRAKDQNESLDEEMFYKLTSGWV

[4] = target: GST-Kindlin-2 full-length (UniProt Q96AC1); assay: pull-down; GST or GST-fusion proteins of Kindlin-2 on Glutathione-Sepharose, mixed with lysates of primary PCCs from KPC;WT mice overnight at 4 C; washed with PBS, 0.2% Triton X-100; immunoblot for endogenous DDX3X; only the target purified
GST-DDX3X full-length = GST-DDX3X full-length (UniProt O00571); assay: biotinylated RNA pull-down; biotinylated c-Myc 5'UTR RNA or control RNA on streptavidin magnetic beads with purified GST-K2/GST or GST-K2/GST-DDX3X; immunoblot with anti-Kindlin-2 antibodies; both purified
[5] = target: DDX3X (endogenous, human MIA PaCa-2 cells) (human (endogenous in MIA PaCa-2)) (UniProt O00571); assay: co-IP; endogenous proteins; 2 mg lysate of primary mouse PCCs or human MIA PaCa-2 cells; anti-Kindlin-2 (clone 3A3) or anti-DDX3X antibody overnight at 4 C, protein A/G Plus-Agarose, control mouse or rabbit IgG; immunoblot
[6] = target: DDX3X (endogenous, mouse primary pancreatic cancer cells) (mouse (endogenous in primary PCCs)) (UniProt Q62167); assay: as above

binding [1]: binds
Molecule: DDX3X (endogenous, human MIA PaCa-2 cells) (from UniProt O00571 1-662)

binding [2]: binds
binding [3]: binds
binding [4]: binds
Molecule: DDX3X (endogenous, mouse primary pancreatic cancer cells) (from UniProt Q62167 1-662)

binding (GST-DDX3X full-length): binds
Molecule: GST-Kindlin-2 full-length (from UniProt Q96AC1 1-680)

binding [5]: binds
Molecule: Kindlin-2 (endogenous, human MIA PaCa-2 cells) (from UniProt Q96AC1 1-680)

binding [6]: binds
B1: Kindlin-2 (endogenous, mouse primary pancreatic cancer cells) (protein, UniProt Q8CIB5 1-680)
chain: T1 sequence
